## Library compounds against nucleic acid targets

From ROBIN, a set of small-molecule microarray screens (doi:10.1002/anie.202211358).

Targets (5′ to 3′):
TPP: TPP riboswitch RNA three-way junction, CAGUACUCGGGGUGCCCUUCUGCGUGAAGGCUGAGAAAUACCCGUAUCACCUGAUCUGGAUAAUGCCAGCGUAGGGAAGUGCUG. About 160 hits among about 24,000 compounds.

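Compounds were printed on reactive glass slides in duplicate spots, a dye-labelled oligonucleotide was laid over them, and the fluorescence left after washing was read. The data file lists only calls. An earlier report of the laboratory on the PreQ1, TPP and SAM-II riboswitches (doi:10.1038/s41467-019-09493-3) used 1 µM RNA for 2 h and required a mean Z-score above 3 (spot signal-to-noise against the whole library), a score well above that on a control array, and duplicate spots agreeing (coefficient of variation under 100); it then also set aside compounds that hit other targets, which this list keeps. The cut-offs behind this list may differ. These are primary screening calls, not affinities; a compound without a hit may have attached poorly or may still bind in solution.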
“hit” means called a hit, “none” means screened and not called a hit.
Compounds were drawn at random from those tested, without regard to their results.

| # | compound | TPP |
|---|---|---|
| 1 | `Fc1ccc(-c2cc(-c3cccs3)cc(-c3ccccc3)n2)cc1` | none |
| 2 | `O=C(O)C(Cc1c[nH]c2ccccc12)N1C(=O)c2ccccc2C1=O` (stereo not shown) | none |
| 3 | `CC(CNCc1cn(CCC(N)=O)c2ccccc12)n1cncn1` (stereo not shown) | none |
| 4 | `COc1ccc(F)c(CN2CCC(N3CCC(O)CC3)CC2)c1Cl` | none |
| 5 | `COc1ccccc1Nc1c(-c2ccc(N(C)C)cc2)nc2cnccn12` | none |
| 6 | `OC(CN(Cc1ccccc1)Cc1ccccc1)c1ccc2cc[nH]c2c1` (stereo not shown) | none |
| 7 | `OC(COc1ccc(Br)cc1)CN1CCN(c2ccccc2)CC1` (stereo not shown) | none |
| 8 | `Cc1[nH]c(=O)[nH]c(=O)c1NCCO` | none |
| 9 | `CC(C)OC(=O)OCOP(=O)(CO[C@H](C)Cn1cnc2c(N)ncnc21)OCOC(=O)OC(C)C.O=C(O)C=CC(=O)O` | none |
| 10 | `O=C(C1=C(NC2CC2)c2ccccc2S1(=O)=O)N1CCOCC1` | none |
| 11 | `COc1ccc(-c2csc(Nc3cccc(C(C)=O)c3)n2)cc1` | none |
| 12 | `CCOC(=O)N1CCC(Nc2c(N3CCN(CC)CC3)c(=O)c2=O)CC1` | none |
| 13 | `Cc1cc(C)n2nc(CNc3cccc(Cl)c3)nc2n1` | none |
| 14 | `COCCn1cncc1CN1CCN(C(=O)c2cc[nH]c2)CC(O)C1` (stereo not shown) | none |
| 15 | `CC(=O)O.COc1ccc2nccc(/C=C/c3ccnc4ccc(OC)cc34)c2c1` | none |
| 16 | `O=C(NNCC(O)Cn1c2ccccc2c2ccccc21)c1ccccc1` (stereo not shown) | none |
| 17 | `COc1ccc(-c2nn3c(NCCN(C)C)cc(C)nc3c2C)cc1OC` | none |
| 18 | `O=C(CCCn1cncn1)N1C[C@H](CO)C[C@H](CN2CCOCC2)C1` | none |
| 19 | `COC(=O)C1(C(=O)OC)C2C(=O)C3C(C21)C3(C(=O)OC(C)(C)C)C(=O)OC(C)(C)C` (stereo not shown) | none |
| 20 | `CCOc1ccc(S(=O)(=O)[C@H]2CS(=O)(=O)C[C@@H]2NCc2ccncc2)cc1` | none |
| 21 | `Cc1cccc(CNc2ncc(-c3ccc(F)cc3)n2C)c1` | none |
| 22 | `C[C@H]([C@@H](O)c1ccc(O)cc1)n1ccnc1-c1coc(-c2ccccc2)n1` | none |
| 23 | `Cc1cc(Nc2ccc(C(=O)N3CCOCC3)cc2)n2nc(-c3cccnc3)nc2n1` | none |
| 24 | `CSc1nc(NC(C)C(=O)O)c(C#N)c(-c2ccc(C)cc2)n1` (stereo not shown) | none |
| 25 | `Cc1ccccc1Cn1c(C(=O)O)c(CNC(C)C)c2ccccc21` | none |
| 26 | `OC[C@H]1CN(Cc2ccc(OC(F)(F)F)cc2)C[C@H]1CN1CCOCC1` | none |
| 27 | `O=C(C1CC2(CCNCC2)CN1)N1CCc2c(nc(CC3CC3)[nH]c2=O)C1` (stereo not shown) | none |
| 28 | `C=C(c1ccc(C(=O)O)cc1)c1cc2c(cc1C)C(C)(C)CCC2(C)C` | none |
| 29 | `CSc1c(CC(=O)NCCO)n(C)c2ccccc12` | none |
| 30 | `NCCS(=O)(=O)N1CCOCC1` | none |
| 31 | `O=C(CCn1ccc(=O)[nH]c1=O)N1CC[C@@H](c2ccc3c(c2)OCO3)[C@H](O)C1` | none |
| 32 | `Cc1nc2ccccc2nc1CN1CCC2(CC1)[C@H](O)C[C@@H]2OCCN` | none |
| 33 | `Cc1nc(Nc2ccc(F)cc2)nc2c1nnn2-c1ccc(F)cc1` | none |
| 34 | `COc1cc(C)c(CNCCc2cccc(F)c2)cc1C` | none |
| 35 | `COc1ccccc1CNc1ncccc1-c1nc(-c2ccccc2)no1` | none |
| 36 | `CCc1ccc(CNc2ncc3nc(-c4ccccc4)oc3n2)cc1` | none |
| 37 | `O=C1c2cccnc2C(Nc2ccc(S(=O)(=O)N3CCCCCC3)cc2)N1Cc1ccccc1` (stereo not shown) | none |
| 38 | `COc1cc(CNc2ccc(N3CCOCC3)cc2)cc(Cl)c1OCC(N)=O` | none |
| 39 | `CCOC(=O)c1ccc2ncc(C(=O)OCC)c(NCCN3CCOCC3)c2c1` | none |
| 40 | `Br.NCC(c1ccccc1)C1CCCC1` (stereo not shown) | none |
| 41 | `O=S1(=O)C[C@H](NCc2ccc(F)cc2)[C@@H](S(=O)(=O)c2ccc(F)cc2)C1` | none |
| 42 | `O=C1CCC2(CCCN(C(=O)CCc3nc4ccccc4[nH]3)C2)CN1CCO` (stereo not shown) | none |
| 43 | `Cc1nn(C)c(C)c1-c1cc(-c2nc(C3CCCC3)nn2CCO)n(C)n1` | none |
| 44 | `NCCc1nnc(SCc2ccc(Br)cc2)o1` | none |
| 45 | `COc1ccc(F)c(CN2CCCC(O)(CNCCn3cccn3)C2=O)c1` (stereo not shown) | none |
| 46 | `Cc1ccccc1OCCCCn1c(C(C)O)nc2ccccc21` (stereo not shown) | none |
| 47 | `O=C(C1NCCc2[nH]cnc21)N1CCCN(Cc2ccc(F)cc2)CC1` (stereo not shown) | none |
| 48 | `O=C1CNC(=O)N1CC(=O)N(Cc1ccccc1)[C@@H]1CCCC[C@H]1O` | none |
| 49 | `S=P(N1CC1)(N1CC1)N1CC1` | none |
| 50 | `CCOC(=O)C(CO)NC(=O)c1cncc(O)c1` (stereo not shown) | none |
| 51 | `Nc1nonc1C(=O)NCCNCc1ccccc1F` | none |
| 52 | `CCCCSc1ncnc2[nH]ncc12` | none |
| 53 | `CC(C)Sc1ccccc1NC(=O)NCCCNc1cccnc1` | none |
| 54 | `Cc1ccccc1SCC(=O)N1CCN(Cc2ccccc2CO)CC1` | none |
| 55 | `CC[n+]1cn(CC(O)COc2ccccc2)c2ccccc21` (stereo not shown) | none |
| 56 | `CCOC(=O)c1nc(Nc2cc(Cl)ccc2O)c2ccccc2n1` | none |
| 57 | `COc1ccccc1-c1ncc(CNC(=O)[C@@]23CNC[C@@H]2CN(C)C3)s1` | none |
| 58 | `c1cnc(Oc2cccc(CNCCCn3ccnc3)c2)nc1` | none |
| 59 | `N#CC1=C(N)Oc2c(c(=O)oc3ccccc23)C1c1ccc(C(F)(F)F)cc1` (stereo not shown) | none |
| 60 | `Nc1ccnn1Cc1cccnc1` | none |
| 61 | `COc1ccc(N2C(=O)c3ccccc3NC2c2c(F)c(F)c(F)c(F)c2F)cc1` (stereo not shown) | none |
| 62 | `Cc1ccc(C(CC(=O)c2ccco2)SCCO)cc1` (stereo not shown) | none |
| 63 | `C[C@@H](Oc1cc(-n2cnc3ccc(CN4CCN(C)CC4)cc32)sc1C(N)=O)c1ccccc1C(F)(F)F` | none |
| 64 | `CCOC(=O)N1CCN(Cc2nc3c(c(=O)n(C)c(=O)n3C)n2CCCO)CC1` | none |
| 65 | `Oc1ccccc1-c1nn(CNc2ccc(I)cc2)c(=S)o1` | none |
| 66 | `CCOc1ccc(-c2cnc(NCc3ccc(C(F)(F)F)cc3)n2C)cc1` | none |

For reference, 6 entries once more:

| compound | TPP |
|---|---|
| `CCOC(=O)N1CCC(Nc2c(N3CCN(CC)CC3)c(=O)c2=O)CC1` | none |
| `CC(C)Sc1ccccc1NC(=O)NCCCNc1cccnc1` | none |
| `Nc1nonc1C(=O)NCCNCc1ccccc1F` | none |
| `COc1ccc(F)c(CN2CCC(N3CCC(O)CC3)CC2)c1Cl` | none |
| `CCOC(=O)C(CO)NC(=O)c1cncc(O)c1` (stereo not shown) | none |
| `CCc1ccc(CNc2ncc3nc(-c4ccccc4)oc3n2)cc1` | none |